Each structure is given as a SMILES string. Counter-ions that a name gives are not always drawn. The list shows a part of the results. Single values are uncertain here, since repeats match poorly.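 ReNCell VM, a human fetal ventral-midbrain neural progenitor line, was differentiated without mitogens. Blinded raters scored images stained for doublecortin (early neurons) or tyrosine hydroxylase (dopaminergic neurons) against untreated wells (0 = no change). Scores were averaged across repeats and both raters, and compounds averaging 2 or more were selected as hits for retesting.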

The test system of the assay is ReNCell VM. Put plainly: neuronal differentiation score (DCX+ cell fraction vs untreated, manual image score) (score (-3 to 3)); higher = more neuronal differentiation. The conditions noted are these: library: LOPAC; 2 uM; 2 weeks.
Regarding `CC(N/C(=N\C#N)Nc1ccncc1)C(C)(C)C` (stereo not drawn) [Pinacidil], the neuronal differentiation score was inactive: 0.

With `CN1CCN(CCCN2c3ccccc3Sc3ccc(Cl)cc32)CC1` [Prochlorperazine dimaleate], the neuronal differentiation score is inactive: 0.

As for `O=C(O)c1cc(=O)c2ccccc2[nH]1` [Kynurenic acid], the neuronal differentiation score was inactive: 0.

Consider `CN1CC(=O)N=C1NC(=O)Nc1cccc(Cl)c1` [Fenobam], for which the neuronal differentiation score is inactive: 0.

With `O=C(O)c1cc(=O)c2c(Cl)cc(Cl)cc2[nH]1` [5,7-Dichlorokynurenic acid], the neuronal differentiation score was inactive: 0.

For the molecule `CC(C)NCC(O)c1ccc(O)c(O)c1` (single isomer, unassigned; (-)) [(-)-Isoproterenol hydrochloride], the neuronal differentiation score was inactive: 1.

`COc1cc2c(cc1C(F)(F)F)N(C(=O)Nc1cc(F)cc(-c3cccnc3)c1)CC2`: the neuronal differentiation score is inactive: 0.

For the molecule `COc1ccc(Cl)cc1NC(=O)Nc1cc(C)nc2ccccc12`, the neuronal differentiation score was inactive: 0.

Take `CC[N+](CC)(CC)CCOc1cccc(OCC[N+](CC)(CC)CC)c1OCC[N+](CC)(CC)CC` [Gallamine triethiodide]: the neuronal differentiation score is inactive: 0.

For the molecule `O=C(CCCN1CCC(O)(c2ccc(Cl)cc2)CC1)c1ccc(F)cc1` [Haloperidol], the neuronal differentiation score is inactive: 1.

For `CC(CCc1ccccc1)NCC(O)c1ccc(O)c(C(N)=O)c1` (stereo not drawn) [Labetalol hydrochloride], the neuronal differentiation score was inactive: 0.

As to `Cc1cnc(C(=O)NCCc2ccc(S(=O)(=O)NC(=O)NC3CCCCC3)cc2)cn1` [Glipizide], the neuronal differentiation score is inactive: 0.

For `O=C(O)c1cccnc1C(=O)O` [Quinolinic acid], the neuronal differentiation score was inactive: 0.

With `CCN(CC)CCCC(C)Nc1ccnc2cc(Cl)ccc12` (stereo not drawn) [Chloroquine diphosphate], the neuronal differentiation score is inactive: 0.

For `CN(C)CCCO[C@@H]1[C@H]2OC(C)(C)O[C@H]2O[C@@H]1[C@H](O)CO` [Amiprilose hydrochloride], the neuronal differentiation score is inactive: 0.

Take `Oc1cc2c(cc1O)CN(C(=S)NCCc1ccc(Cl)cc1)CCC2` [Capsazepine]: the neuronal differentiation score was inactive: 0.

For the molecule `CC(COc1ccccc1)N(CCCl)Cc1ccccc1` (stereo not drawn) [Phenoxybenzamine hydrochloride], the neuronal differentiation score is active: 3.

For the molecule `CC(=O)NNC(=O)N1Cc2ccccc2Oc2ccc(Cl)cc21`, the neuronal differentiation score is inactive: 1.

As to `CCCCCCCCCCCCCCCC(=O)NCCO` [Palmitoylethanolamide], the neuronal differentiation score is inactive: 0.

Regarding `Nc1nc(N)c2nc(-c3ccccc3)c(N)nc2n1` [Triamterene], the neuronal differentiation score was inactive: 0.

For `COc1cc2nc(N3CCN(C(=O)C4COc5ccccc5O4)CC3)nc(N)c2cc1OC` (stereo not drawn) [Doxazosin mesylate], the neuronal differentiation score is inactive: 0.

As to `O=C1Cc2c([nH]c3ccc(Br)cc23)-c2ccccc2N1` [Kenpaullone], the neuronal differentiation score was active: 2.

`Cc1ccc([N+](=O)[O-])cc1S(=O)(=O)N(C)C`: the neuronal differentiation score was inactive: 0.

Take `COc1cc(Cc2cnc(N)nc2N)cc(OC)c1OC` [Trimethoprim]: the neuronal differentiation score is inactive: 0.

As to `OCCN1CCN(CCCN2c3ccccc3C=Cc3ccccc32)CC1` [Opipramol dihydrochloride], the neuronal differentiation score was inactive: 0.

Regarding `CC(=O)[C@H]1CC[C@H]2[C@@H]3CCC4=CC(=O)CC[C@]4(C)[C@H]3CC[C@]12C` [Progesterone], the neuronal differentiation score was inactive: 1.

`CC(=Cc1ccc(C(=O)O)cc1)c1ccc2c(c1)C(C)(C)CCC2(C)C`: the neuronal differentiation score is inactive: 0.

Regarding `CC(C)(C(=O)O)c1ccc(C(O)CCCN2CCC(C(O)(c3ccccc3)c3ccccc3)CC2)cc1` (stereo not drawn) [Fexofenadine hydrochloride], the neuronal differentiation score was inactive: -1.
